{"sequences": {"note": "Sequences of proteins named here, by UniProt entry; tags and fusion partners are left off. A change or cut given only in a name is not applied to a line headed by its entry.", "UniProt P28070": "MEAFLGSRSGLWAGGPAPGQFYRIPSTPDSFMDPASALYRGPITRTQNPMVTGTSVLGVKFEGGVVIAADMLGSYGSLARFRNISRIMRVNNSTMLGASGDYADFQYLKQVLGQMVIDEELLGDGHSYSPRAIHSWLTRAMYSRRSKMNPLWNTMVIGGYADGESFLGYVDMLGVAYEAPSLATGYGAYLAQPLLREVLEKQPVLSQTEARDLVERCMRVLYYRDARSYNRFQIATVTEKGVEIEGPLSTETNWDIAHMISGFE"}, "source": "paper PMC5451543", "binders": {"B1": {"name": "HA-UBLCP1 (protein, UniProt Q8WVY7 1-318)", "chain": "MALPIIVKWGGQEYSVTTLSEDDTVLDLKQFLKTLTGVLPERQKLLGLKVKGKPAENDVKLGALKLKPNTKIMMMGTREESLEDVLGPPPDNDDVVNDFDIEDEVVEVENREENLLKISRRVKEYKVEILNPPREGKKLLVLDVDYTLFDHRSCAETGVELMRPYLHEFLTSAYEDYDIVIWSATNMKWIEAKMKELGVSTNANYKITFMLDSAAMITVHTPRRGLIDVKPLGVIWGKFSEFYSKKNTIMFDDIGRNFLMNPQNGLKIRPFMKAHLNRDKDKELLKLTQYLKEIAKLDDFLDLNHKYWERYLSKKQGQ"}, "B2": {"name": "HA-UBLCP1 DDAA (protein, UniProt Q8WVY7 1-318)", "chain": "MALPIIVKWGGQEYSVTTLSEDDTVLDLKQFLKTLTGVLPERQKLLGLKVKGKPAENDVKLGALKLKPNTKIMMMGTREESLEDVLGPPPDNDDVVNDFDIEDEVVEVENREENLLKISRRVKEYKVEILNPPREGKKLLVLAVAYTLFDHRSCAETGVELMRPYLHEFLTSAYEDYDIVIWSATNMKWIEAKMKELGVSTNANYKITFMLDSAAMITVHTPRRGLIDVKPLGVIWGKFSEFYSKKNTIMFDDIGRNFLMNPQNGLKIRPFMKAHLNRDKDKELLKLTQYLKEIAKLDDFLDLNHKYWERYLSKKQGQ"}, "B3": {"name": "endogenous UBLCP1 (protein, UniProt Q8WVY7 1-318)", "chain": "MALPIIVKWGGQEYSVTTLSEDDTVLDLKQFLKTLTGVLPERQKLLGLKVKGKPAENDVKLGALKLKPNTKIMMMGTREESLEDVLGPPPDNDDVVNDFDIEDEVVEVENREENLLKISRRVKEYKVEILNPPREGKKLLVLDVDYTLFDHRSCAETGVELMRPYLHEFLTSAYEDYDIVIWSATNMKWIEAKMKELGVSTNANYKITFMLDSAAMITVHTPRRGLIDVKPLGVIWGKFSEFYSKKNTIMFDDIGRNFLMNPQNGLKIRPFMKAHLNRDKDKELLKLTQYLKEIAKLDDFLDLNHKYWERYLSKKQGQ"}}, "key": {"FLAG-β4 (human) [1]": {"target": "FLAG-β4 (human) (UniProt P28070)", "assay": "co-IP; HEK293T co-transfected with tagged proteins; FLAG lysis buffer (300 mM NaCl, 25 mM Tris–HCl pH 7.5, 2 mM EDTA, 1% Triton X-100); IP with anti-FLAG antibody, western blot; some panels with UBLCP1 knockout, siRpn1 or HA-Rpn1 overexpression"}, "FLAG-β4 (human) [2]": {"target": "FLAG-β4 (human) (UniProt P28070)", "assay": "co-IP; HEK293T transfected with FLAG-β4 alone, 48 h; IP with anti-FLAG antibody; endogenous partners probed by western blot"}}, "note": "No constants are given. Whether binding was seen depends on the method and setting. Binding seen in cells or lysates may run through a third protein. For part of these data: Sequences can lack the tags named with a protein."}
{"binder": "B1", "values": [{"measurement": "binding", "setting": "FLAG-β4 (human) [1]", "value": "no binding"}]}
{"binder": "B2", "values": [{"measurement": "binding", "setting": "FLAG-β4 (human) [1]", "value": "no binding"}]}
{"binder": "B3", "values": [{"measurement": "binding", "setting": "FLAG-β4 (human) [2]", "value": "no binding"}]}
